Measurements as given in EP1972624A1, “Benzoxazinones and their use as ultraviolet light absorbers” (Clariant International Ltd., priority 2007, dated 2008).

Experiments:
[1] = Artificial UV irradiation (UV-CON A, ASTM D 5208), impact on tensile strength; details: UV absorber 0.2 %
[2] = Artificial UV irradiation (UV-CON A, ASTM D 5208), impact on elongation at break; details: UV absorber 0.2 %
[3] = Artificial UV irradiation (UV-CON A, ASTM D 5208), impact on transparency; details: UV absorber 0.2 %
[4] = Oven aging at 120°C, impact on transparency (Table 4); details: oven aging 120°C, UV absorber 0.2 %

| SMILES | Impact on tensile strength (MPa) ([1]; exposure time 0 hours) | Impact on tensile strength (MPa) ([1]; exposure time 50 hours) | Impact on tensile strength (MPa) ([1]; exposure time 100 hours) | Impact on elongation at break (%) ([2]; exposure time 50 hours) | Impact on elongation at break (%) ([2]; exposure time 100 hours) | Impact on transparency (%) ([3]; exposure time 0 hours) | Impact on transparency (%) ([3]; exposure time 50 hours) | Impact on transparency (%) ([3]; exposure time 100 hours) | Impact on transparency (%) ([4]; exposure time 0 days) | Impact on transparency (%) ([4]; exposure time 1 day) | Impact on transparency (%) ([4]; exposure time 2 days) | Impact on transparency (%) ([4]; exposure time 3 days) |
| --- | --- | --- | --- | --- | --- | --- | --- | --- | --- | --- | --- | --- |
| CCCCCCCCOc1c(-c2nc3ccccc3c(=O)o2)sc2ccccc12 [(Ia)] | 69.5 | 69.1 | 70.8 | 73.2 | 54.0 | – | – | – | – | – | – | – |
| CCCCC(CC)COc1c(-c2nc3ccccc3c(=O)o2)sc2ccccc12 (stereo not shown) [(Ib)] | – | – | – | – | – | 90.28 | 90.21 | 90.20 | 90.27 | 90.20 | 90.12 | 90.04 |
| COC(=O)C(=Cc1ccc(C=C(C(=O)OC)C(=O)OC)cc1)C(=O)OC [Hostavin®B-CAP] | – | – | – | – | – | 90.26 | 90.18 | 90.18 | 90.19 | 90.10 | 90.07 | 89.98 |
| CCCCCCOc1ccc(-c2nc(-c3ccccc3)nc(-c3ccccc3)n2)c(O)c1 [Tinuvin®1577] | – | – | – | – | – | 90.22 | 90.11 | 90.15 | 90.21 | 90.14 | 89.94 | 89.85 |
| CCCCCCCCOc1cc(-c2nc3ccccc3c(=O)o2)cc(-c2nc3ccccc3c(=O)o2)c1 [YT 35/03, reference compound] | 62.6 | 66.3 | 69.4 | 68.2 | 51.2 | – | – | – | – | – | – | – |
